{"source": "PubChem BioAssay AID493246 (Drosophila RNAi Screening Center, 2011)", "assay": "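Identify essential fly genes by loss of cell viability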 (primary screen)", "cells": "Drosophila Kc and S2R+ cells", "knock-down reagent": "long dsRNA against Drosophila genes", "measured": "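Cell number per well after knock-down, printed as raw plate values; calls were based on per-plate z-scores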", "scale": "Kc cell number and S2R+ cell number: higher = more cells remaining", "hit rule": "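Counted as a hit if cell number falls by a z-score of at least 3 within its plate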", "note": "The screen tested about 21,000 reagents; shown is an unselected part of those that have a named target and a result. In the full data, 429 (2%) got an active call. 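Values are raw and not normalised between plates; calls rest on per-plate z-scores that were not deposited.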 A number with no mark means an inactive call. The record does not give: the amount of reagent, the time to read-out."}
{"gene": "CCT5", "PubChem SID": "SID104187149", "Kc cell number, rep 1": 1.26e6, "Kc cell number, rep 2": 1.37e6, "S2R+ cell number, rep 1": 1.10e6, "S2R+ cell number, rep 2": 1.17e6}
{"gene": "CG13405", "PubChem SID": "SID104188102", "Kc cell number, rep 1": 1.22e6, "Kc cell number, rep 2": 1.27e6, "S2R+ cell number, rep 1": 9.77e5, "S2R+ cell number, rep 2": 1.24e6}
{"gene": "Su(var)205", "PubChem SID": "SID104183238", "Kc cell number, rep 1": 1.22e6, "Kc cell number, rep 2": 1.32e6, "S2R+ cell number, rep 1": 6.54e5, "S2R+ cell number, rep 2": 9.41e5}
{"gene": "CG5937", "PubChem SID": "SID104198184", "Kc cell number, rep 1": 1.65e6, "Kc cell number, rep 2": 1.62e6, "S2R+ cell number, rep 1": 1.02e6, "S2R+ cell number, rep 2": 1.08e6}
{"gene": "FucTD", "PubChem SID": "SID104188426", "Kc cell number, rep 1": 1.49e6, "Kc cell number, rep 2": 1.37e6, "S2R+ cell number, rep 1": 1.06e6, "S2R+ cell number, rep 2": 1.30e6}
{"gene": "Ppox", "PubChem SID": "SID104196825", "Kc cell number, rep 1": 1.39e6, "Kc cell number, rep 2": 1.57e6, "S2R+ cell number, rep 1": 1.07e6, "S2R+ cell number, rep 2": 1.12e6}
{"gene": "RtcB", "PubChem SID": "SID104183072", "Kc cell number, rep 1": 1.56e6, "Kc cell number, rep 2": 1.66e6, "S2R+ cell number, rep 1": 1.37e6, "S2R+ cell number, rep 2": 4.18e5}
{"gene": "PIG-Q", "PubChem SID": "SID104198930", "Kc cell number, rep 1": 1.38e6, "Kc cell number, rep 2": 1.66e6, "S2R+ cell number, rep 1": 1.07e6, "S2R+ cell number, rep 2": 1.23e6}
{"gene": "CG11722", "PubChem SID": "SID104194150", "Kc cell number, rep 1": 1.73e6, "Kc cell number, rep 2": 1.65e6, "S2R+ cell number, rep 1": 1.19e6, "S2R+ cell number, rep 2": 1.34e6}
{"gene": "sc", "PubChem SID": "SID104198622", "Kc cell number, rep 1": 1.56e6, "Kc cell number, rep 2": 1.58e6, "S2R+ cell number, rep 1": 1.02e6, "S2R+ cell number, rep 2": 1.16e6}
{"gene": "CG33453", "PubChem SID": "SID104185574", "Kc cell number, rep 1": 5.62e5, "S2R+ cell number, rep 1": 8.20e5}
{"gene": "5-HT2A", "PubChem SID": "SID104191782", "Kc cell number, rep 1": 1.61e6, "Kc cell number, rep 2": 1.69e6, "S2R+ cell number, rep 1": 1.33e6, "S2R+ cell number, rep 2": 1.45e6}
{"gene": "CG5390", "PubChem SID": "SID104182647", "Kc cell number, rep 1": 1.50e6, "Kc cell number, rep 2": 1.60e6, "S2R+ cell number, rep 1": 1.20e6, "S2R+ cell number, rep 2": 1.33e6}
{"gene": "blanks", "PubChem SID": "SID104189549", "Kc cell number, rep 1": 1.37e6, "Kc cell number, rep 2": 1.37e6, "S2R+ cell number, rep 1": 1.25e6, "S2R+ cell number, rep 2": 1.28e6}

Reformatted: entries from further up
CG33453 [SID104185574]
- Kc cell number, rep 1: 5.62e5
- S2R+ cell number, rep 1: 8.20e5

5-HT2A [SID104191782]
- Kc cell number, rep 1: 1.61e6
- Kc cell number, rep 2: 1.69e6
- S2R+ cell number, rep 1: 1.33e6
- S2R+ cell number, rep 2: 1.45e6
